Our source for the binding values is PMC5496739.

Amino acid sequences for entries named in this document (tags omitted). A change or cut given only in a name is not applied to a line headed by its entry.
UniProt Q80U40: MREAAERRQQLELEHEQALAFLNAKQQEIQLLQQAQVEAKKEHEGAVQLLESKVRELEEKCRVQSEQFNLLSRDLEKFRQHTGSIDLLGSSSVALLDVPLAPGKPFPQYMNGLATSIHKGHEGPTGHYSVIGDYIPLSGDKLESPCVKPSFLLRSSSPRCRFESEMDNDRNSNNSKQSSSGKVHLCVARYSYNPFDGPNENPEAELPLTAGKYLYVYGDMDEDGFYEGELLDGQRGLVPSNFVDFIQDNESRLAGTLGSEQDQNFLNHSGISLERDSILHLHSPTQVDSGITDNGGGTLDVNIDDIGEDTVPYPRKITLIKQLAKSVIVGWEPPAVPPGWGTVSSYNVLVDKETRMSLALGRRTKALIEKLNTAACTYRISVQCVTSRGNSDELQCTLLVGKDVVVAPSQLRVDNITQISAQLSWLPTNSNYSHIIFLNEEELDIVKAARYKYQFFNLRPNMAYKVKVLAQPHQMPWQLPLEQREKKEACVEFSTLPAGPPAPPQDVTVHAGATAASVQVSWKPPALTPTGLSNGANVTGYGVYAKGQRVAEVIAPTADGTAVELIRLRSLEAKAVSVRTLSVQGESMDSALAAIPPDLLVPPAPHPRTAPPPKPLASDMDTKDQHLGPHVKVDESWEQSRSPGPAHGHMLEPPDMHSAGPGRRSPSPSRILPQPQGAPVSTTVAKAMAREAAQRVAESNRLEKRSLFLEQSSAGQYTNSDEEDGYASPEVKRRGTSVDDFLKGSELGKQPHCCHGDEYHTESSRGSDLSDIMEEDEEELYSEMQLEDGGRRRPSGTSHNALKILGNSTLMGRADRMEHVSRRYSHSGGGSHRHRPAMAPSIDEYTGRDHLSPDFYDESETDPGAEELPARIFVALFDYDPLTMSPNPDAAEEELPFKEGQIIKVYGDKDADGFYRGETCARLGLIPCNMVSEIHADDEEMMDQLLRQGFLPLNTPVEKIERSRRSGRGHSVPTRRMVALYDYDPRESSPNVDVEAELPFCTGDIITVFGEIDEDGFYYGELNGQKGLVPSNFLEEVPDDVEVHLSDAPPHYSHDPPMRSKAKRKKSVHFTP

These are yes or no findings as the source states them, for the method shown. In cells and extracts the contact can be indirect. For part of these data: A result given as binding can be weak or reduced; the word gives no strength.

Assay [1] concerns the target T1, exophilin-8 (wild type) expressed in HEK293A cells (mouse) (UniProt Q8K3I4).
T1 sequence: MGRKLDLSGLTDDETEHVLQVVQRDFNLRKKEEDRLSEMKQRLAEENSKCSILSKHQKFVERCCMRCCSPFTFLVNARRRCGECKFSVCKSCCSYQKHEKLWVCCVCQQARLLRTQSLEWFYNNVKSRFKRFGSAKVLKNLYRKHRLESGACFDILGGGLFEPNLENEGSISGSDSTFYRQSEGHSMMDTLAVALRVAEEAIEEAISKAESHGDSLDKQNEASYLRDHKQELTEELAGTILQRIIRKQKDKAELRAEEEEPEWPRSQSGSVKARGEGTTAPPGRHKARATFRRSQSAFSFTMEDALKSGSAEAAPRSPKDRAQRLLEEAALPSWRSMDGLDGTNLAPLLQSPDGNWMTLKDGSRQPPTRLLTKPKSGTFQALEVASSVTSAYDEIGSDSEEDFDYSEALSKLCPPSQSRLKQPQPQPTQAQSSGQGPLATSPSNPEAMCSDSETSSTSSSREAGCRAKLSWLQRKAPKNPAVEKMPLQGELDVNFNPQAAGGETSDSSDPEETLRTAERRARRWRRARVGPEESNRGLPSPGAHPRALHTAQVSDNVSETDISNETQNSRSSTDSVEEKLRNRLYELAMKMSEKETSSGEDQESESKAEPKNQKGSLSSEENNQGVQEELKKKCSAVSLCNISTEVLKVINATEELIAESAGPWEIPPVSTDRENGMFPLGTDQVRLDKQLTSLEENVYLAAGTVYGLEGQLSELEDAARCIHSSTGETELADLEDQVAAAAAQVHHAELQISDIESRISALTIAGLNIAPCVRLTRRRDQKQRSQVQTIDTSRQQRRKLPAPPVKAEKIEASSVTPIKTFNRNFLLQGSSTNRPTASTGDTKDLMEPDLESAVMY
As to the kind of experiment: co-IP; HEK293A cells transfected with plasmids for RIM-BP2, exophilin-8 and their deletion or point mutants; immunoprecipitates with anti-FLAG or anti-HA antibodies blotted with anti-FLAG, anti-GFP and anti-HA.

The target of a further assay is MEF-RIM-BP2ΔSH3 (mouse) (UniProt Q80U40). As to the kind of experiment: co-IP; INS-1 832/13 cells infected with adenovirus encoding GFP, MEF-RIM-BP2 or MEF-RIM-BP2ΔSH3; anti-FLAG immunoprecipitates blotted with anti-exophilin-8 and anti-myosin-VIIa.

On to “RIM-BP2 third SH3 domain (from UniProt Q80U40) (domain or fragment)”, for which the binding result in assay [1] is on record as “binds”.

For “RIM-BP2 first SH3 domain (from UniProt Q80U40) (domain or fragment)”, in assay [1], the binding result is given as “binds”.

B1: exophilin-8, endogenous in INS-1 832/13 cells (protein, UniProt Q7TNY7 1-856)
chain: MGRKLDLSGLTDDETEHVLQVVQRDFNLRKKEEDRLSEMKQRLAEENSKCSILSKHQKFVERCCMRCCSPFTFLVNARRRCGECKFSVCKSCCSYQKHEKLWVCCVCQQARLLRTQSLEWFYNNVKTRFKRFGSAKVLKNLYKKHRLESGACFDILGGGLYEPNLENEGSISGSDSTFYRQSEGHSMMDTLAVALQVAEEAIEEAISKAESQRDSLDKQNEASYLRDHRQELAEELAGTILQRIIRKQKDKADLHAEEEEPECTRPQSSGVKARGEGTAAPPGRHKARAALWRSQSAFSFTTEDTLKTSSAEAAPRQPKDRAQRLLEESALPSWRSMDGLDGKNLVPLLQSPDGNWMTLKDSSRQPPTRLLAKPKSRTFQALEVASSVASAYDELGSDSEEDFDYSEALSKLRPPSQGRLKQPQPQPAQAQSSGQGPLATSPSNPEAMCSDSETSSTSSSREAGCRAKLLWLQRKAPKNPSAEKTHLQGELDVNFNPQAAGGETSDSSDPEETLHTADRRARRWRRARVGPEESNRGLPSPSAYPPALHTAQVSDNVSETDISNEAQNSRSSTDSAEEKLRNRLYELAMKMSEKETSSGEDQESESKTEPKNQKGSLSSEENNQGVQEELKKKCSAVSLCNISTEVLKVINATEELIAESAGPWEIPPVSTDRDNGMFPLGTDQRSLDKQLTSLEENVYLAAGTVYGLEGQLSELEDAARCIHSSTGETELADLEDQVAAAAAQVHHAELQISDIESRISALTIAGLNIAPCVRLTRRRDQKQRSQVQTIDTSRQQRRKLPAPPVKAEKIEASSVTPIKTFNRNFLLQGSSTNRPTASTSNTKDLMEPVLESAVMY
For the molecule B1, the binding result with MEF-RIM-BP2ΔSH3 (mouse) is given as “no binding”.
